# Measured values from PubChem BioAssay AID1347423 (Functional Genomics Laboratory (NCATS/FGL), 2020).
# Hit rate of the full screen: of about 52,000 sequences, about 210 (0.4%) were called active.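 How the source made its calls: active means gene whose silencing raises cell survival under the drug, median off-target-corrected z-score across its silencing RNAs 2 or more; inactive means the rest.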 The list shows a part of the results.
# Experiment: Resistance to Poly (ADP-Ribose) Polymerase inhibitor: Gene Identification via Genome-wide siRNA Screen
# Details: mouse BRCA2 R2336H ES cells, olaparib, CellTiter-Glo viability; active compounds read high
# In short: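 Genome-wide siRNA screen (3 siRNAs/gene, 20 nM) in mouse ES cells carrying hypomorphic BRCA2 R2336H; olaparib 500 nM added 48 h post-transfection, CellTiter-Glo viability 72 h later. Normalized to plate-median negative control; MAD z-scores, gene median, seed-adjusted.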
row,Sequence,z-score
1,GGACCUCGAUGAAACCAUCTT against Stx6,inactive: 1.43
2,GCCCAUGUAUCCAAAAGAATT against Lect1,inactive: -1.18
3,GGGUUGCCCAGAAUGUAAATT against Cga,inactive: -1.32
4,GCUGAAACUAGACAUUAAGTT against Taf11,inactive: 1.32
5,GGAGAAUCCAAAGUAGAUCTT against Mycbp,inactive: 0.856
6,CGUGUGAGGUUUGUGAAAGTT against Gzmf,inactive: -2.41
7,GCAAUACCUUCUGACACAGTT against Eral1,inactive: 0.61
8,GGACCUGUUCAGCAGUUUGTT against Hem1,inactive: 1.46
9,CCAAACAUCAAGGAGUUUATT against 1300013B24Rik,inactive: 0.873
10,GGAUCUACUUAUGAGCUAGTT against 4931406I20Rik,inactive: 1.13
11,GGAAGAACGCGUAGAUAAGTT against Anks1,inactive: -0.316
12,GGAGUUCUUCUGGACCUCATT against Ccl22,inactive: 0.0825
13,GGAAAACACCUACCUGUGGTT against Slc25a3,inactive: 0.815
14,CCUAUACAAAGGGAAGUGCTT against A930029K19Rik,inactive: -0.0745
15,GCAUCUUAACACAUGUAAATT against Zfp369,inactive: -0.0232
16,CCUCAUUCAAGAAACCUCATT against Comtd1,inactive: 0.112
17,GCAAGAAUUAAGUCAGUGGTT against C730015A04Rik,inactive: -0.395
18,UCAUGGUCAUCUUUACCCUTT against ORF61,inactive: -0.182
19,GCUCCAUACACGAAUGAGCTT against Edg2,inactive: -0.708
20,GGUGUACGAGAUCCAGGACTT against Eif3s6ip,inactive: 1.5
21,GCUUUACUUCUUCCUCAUUTT against Olfr924,inactive: -0.698
22,GCAAUGAAUUAGCCUUAAATT against Pkia,inactive: -2.26
23,GGCAGAAUUCUUCACCUCCTT against P4ha2,inactive: 1.2
24,GGCGACCUUUGUGUUUCCUTT against Loh11cr2a,inactive: 1.93
25,GCUUCCAUCUUUACUAAGATT against Cpt2,inactive: -0.989
26,GGAACAUUGAACUGAUUUGTT against Mapre1,inactive: 0.831
27,GCUGAACCUUUGAAAUUUCTT against Scmh1,inactive: 1.29

row,Sequence,z-score
1,GGACGAGAACGAUAAUUACTT against Dsc2,inactive: 1.18
2,GGUCCUUGCCACUAAGCCUTT against D17Wsu155e,inactive: -0.339
3,GCUGCUGACUUAUAACUGGTT against BC059842,inactive: -1.44
4,CCACAGUUUGACCUAAUAGTT against Prg,inactive: 1.32
5,GGUACAAACACGAUCAAGGTT against Aox4,inactive: 0.262
6,GGAGGAUGAAACAAGCCUUTT against Tnfsf11,inactive: 2.71
7,GCCCUCUACAACUUUGACCTT against Sh3rf2,inactive: 0.175
8,GGAGGGAGUGAAAACUUUCTT against 1110054N06Rik,inactive: -1.28
9,GCUUUUCGUUCUUAUACAUTT against Hlxb9,inactive: 0.903
10,GGCGCAUGCAGAGUAUCAATT against Tcfap4,inactive: 0.783
11,GGGAAAAGCUAAAAUACAATT against Gtf2h1,inactive: 0.413
12,GGUGCUGAGCAAUCUCAAGTT against Slc35a4,inactive: 0.0917
13,GGAGUUUUUGCAUGAAUUGTT against Folh1,inactive: 1.05
14,GGACAAGGAACAGAGCCUUTT against 5830442J12Rik,inactive: -1.21
15,GGAGUCACACCUGAAUUGCTT against 2610507L03Rik,inactive: -0.978
16,CCAAAGCUGAGGUUGUAACTT against Sstr4,inactive: -0.604
17,GGGAUUCUGAGCUUUCUGGTT against 2310021H06Rik,inactive: 2.08
18,CGUCAUGACAAACUUAGGATT against Calm1,inactive: -0.263
19,CGGGAUACUUUAAAGAACATT against Shfdg1,inactive: -1.64
20,GGACUAUCUCUUUAUGGAATT against Csf1,inactive: -0.589
21,GGCAGUCUUGUCCCUUGUATT against 2900073G15Rik,inactive: -1.96
22,GGAUUGUCAUAACAGAAUUTT against Rpe65,inactive: 1.03
23,CGCAUGCUGGUAAAACGGATT against BC037594,inactive: 0.135
24,GGAGUCAAGCUAGAAGUUUTT against Crry,inactive: 0.323
25,GGCCGUUUCCUACCUCAUGTT against Cckbr,inactive: 2.16
26,GGAAGUCUCAUCGUAAUUCTT against D030060M11Rik,inactive: -2.13
27,GGGAAACAAAUGGGUUGGCTT against Bclp2,inactive: -1.74

# Five entries drawn at random from the list so far, as already listed:
row,Sequence,z-score
18,CGUCAUGACAAACUUAGGATT against Calm1,inactive: -0.263
17,GGGAUUCUGAGCUUUCUGGTT against 2310021H06Rik,inactive: 2.08
15,GGAGUCACACCUGAAUUGCTT against 2610507L03Rik,inactive: -0.978
19,CGGGAUACUUUAAAGAACATT against Shfdg1,inactive: -1.64
7,GCCCUCUACAACUUUGACCTT against Sh3rf2,inactive: 0.175

# (further entries)

row,Sequence,z-score
1,GCGGUCCAGACAGCAAAUATT against Ptbp2,inactive: -0.535
2,GGACUCUCAGGUAAAUGCATT against Gbl,inactive: -1.35
3,GCAACCAAAUCUAUUGUUCTT against 4930511O11Rik,inactive: 0.534
4,GGCUGUCAGAACCAACUACTT against Tshb,inactive: 0.507
5,GGCAAAUGUAGACAUGUAUTT against Defb49,inactive: -1.47
6,GGUCCAGAAUGUGUCCCAGTT against A030009A06Rik,inactive: -0.144
7,GGAAGCAUACGAUCCUAUCTT against 4933402B14Rik,inactive: 1.79
8,GCUUUACCUGGAGAAAAUGTT against 4931422A03Rik,inactive: -1.74
9,GGGAAGAAGCUUUGUGAUUTT against 2310004I24Rik,inactive: 0.805
10,GCCUGAAUUUAGUGUUAAGTT against Hnmt,inactive: 0.495
11,GGCGACUUUUGCAUCGCUUTT against Spink2,inactive: -0.152
12,GGCCACAUGAGGAAUGACGTT against Slc20a2,inactive: 0.255
13,GGGAUCGAUCAAUCAUAACTT against Tcfap2c,inactive: 1.8
14,GGCUCCACAAACCUUCCUUTT against D830014E11Rik,inactive: -1.7
15,CGAUGCAACAUGACCAAGUTT against MGC118309,inactive: 1.11
16,GCUGUAUUCGCUGUGCCGUTT against Siat7b,inactive: 0.098
17,GGAGUUCAUUCUGGAUAUCTT against Matn2,inactive: 2.18
18,GGAGUAUAUCCAAAGAAUUTT against Hook2,inactive: 0.397
19,GGGUAUCCUUUGGUGGUGUTT against Prss32,inactive: -0.545
20,CCUACACCUAGAAAUCUAGTT against Gpr3,inactive: 0.604
21,GGUCCCUGUAGAAAAACUGTT against Asrgl1,inactive: -0.388
22,GGCUGUGGUGAACCUAGACTT against Fcrl3,inactive: -0.354
23,CGCAGAGAGUAGAAAAUUGTT against Pdir,inactive: -0.218
24,GGAUCGACUGCCAAGGAAUTT against Klhdc2,inactive: 0.737
25,CCAGUGGUUGCUAUGGUCUTT against Nme1,inactive: 1.91
26,GGAUCAGAUGUCAGCUUCATT against Stx6,inactive: 1.39
27,GGAUUCUGGAGAAUAUGAATT against Tgm5,inactive: 0.17

# Copied from the list.
# Entry for CCAGUGGUUGCUAUGGUCUTT against Nme1 under z-score: inactive: 1.91
# Entry for GGAAAACACCUACCUGUGGTT against Slc25a3 under z-score: inactive: 0.815
# Entry for GCUUUACCUGGAGAAAAUGTT against 4931422A03Rik under z-score: inactive: -1.74

# Following part.

row,Sequence,z-score
1,CCUAUGAUGUAAUGACCCGTT against Slc25a29,inactive: -0.488
2,GGAUUGGAAGAAAAAGGAGTT against Lair1,inactive: -1.19
3,GGCCUUGAGACUAUCAAUGTT against Emilin3,inactive: 0.405
4,GCAGAAGUGCUAUUCUUGUTT against Cnbp1,inactive: 1.46
5,CGCCAGGUCAAGGAAUGGUTT against Sh2d1c,inactive: 0.639
6,CCAGCAAGAGUGUGUGUAATT against MGC67174,inactive: -1.05
7,GGCAGAAAAGAUAGCAUCUTT against Cops4,inactive: -3.04
8,GGACUUGAAGCUGCACCUATT against Atp6v0d1,inactive: 1.82
9,GCCGGUUGGAACAAAAGGCTT against E130018O15Rik,inactive: 0.373
10,GGAAACUGUGGAUGAAAAGTT against Olfr1230,inactive: 0.256
11,GGUGAAAGACACUUGAAUUTT against Cdk2,inactive: 1.11
12,GGUCCGAGAGACAUUGGCATT against Lmx1b,inactive: 1.88
13,GGAGAGGAUCCAAUGUCUCTT against Ptpn5,inactive: 1.21
14,GGCUAUACACGCAUCAAGCTT against Dtx1,inactive: 1.91
15,GCGACAAGACUUCUUGAGCTT against Epha8,inactive: -0.918
16,CCCUAUACUCAUUUGUAAGTT against Ube2a,inactive: -0.119
17,GCACAAAUAAAGAUAAGAGTT against Uox,inactive: 0.494
18,CGUACAAGACCAACAGAAGTT against D8Ertd82e,inactive: 2.36
19,GGUAUUUCCUAAGUUGCGCTT against Rutbc2,inactive: -0.138
20,GCCCUCGUUCAUACCGUAUTT against Olfr332,inactive: 0.911
21,GGCUGCUGUUAACAAGCUGTT against Wdr13,inactive: -0.38
22,GGCAUCCUGUGUUUUAACUTT against Mmp3,inactive: 0.452
23,CCGCAUGACACGACAUGUATT against BC034097,active: 2.56
24,CGGAAUCUAGGCUUGUGCATT against Timp1,inactive: -1.09
